Measurements reported in US20150086553A1 (SAMSUNG ELECTRONICS, published 2015).
These are yes or no findings as the source states them, for the method shown. Some binding calls cover weakened binding; strength is not graded here.

Legend:
[1] = molecular target: T1, Annexin A1 on cancer cells (SNU1, MDA-MB-231) (UniProt P04083); test: cell-based ELISA on SNU1 and MDA-MB-231 cells, 250/125/25 ng scFv per well, anti-HA-HRP
T1 sequence (looked up): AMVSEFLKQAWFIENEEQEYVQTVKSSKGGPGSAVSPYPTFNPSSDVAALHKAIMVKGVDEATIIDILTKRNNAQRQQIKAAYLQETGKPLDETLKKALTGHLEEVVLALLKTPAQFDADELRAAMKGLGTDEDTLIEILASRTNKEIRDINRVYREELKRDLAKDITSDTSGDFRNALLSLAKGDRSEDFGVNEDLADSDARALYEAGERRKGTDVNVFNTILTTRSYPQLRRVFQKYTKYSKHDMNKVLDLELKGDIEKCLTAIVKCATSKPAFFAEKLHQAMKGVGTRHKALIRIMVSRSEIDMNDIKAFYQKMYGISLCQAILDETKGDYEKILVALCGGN

[2] = molecular target: T2, full-length Annexin A1 protein (346 amino acids; Accession No. NP-000691.1) (human) (UniProt P04083); test: scFv selected by ELISA on plate-coated full-length Annexin A1
T2 sequence: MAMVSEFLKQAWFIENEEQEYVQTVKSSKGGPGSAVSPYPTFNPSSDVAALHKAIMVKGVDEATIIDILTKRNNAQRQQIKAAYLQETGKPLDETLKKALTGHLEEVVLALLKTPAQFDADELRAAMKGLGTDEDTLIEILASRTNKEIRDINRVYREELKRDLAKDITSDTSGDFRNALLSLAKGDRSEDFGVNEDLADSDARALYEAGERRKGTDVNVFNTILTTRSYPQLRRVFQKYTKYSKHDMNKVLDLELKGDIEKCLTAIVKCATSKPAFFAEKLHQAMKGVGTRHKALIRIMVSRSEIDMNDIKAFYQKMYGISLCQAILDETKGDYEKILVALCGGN

[3] = molecular target: T2, full-length Annexin A1 protein (346 amino acids; Accession No. NP-000691.1) (human); test: scFv selected by ELISA on plate-coated full-length Annexin A1, anti-HA-HRP detection

Measured: binding

B1: scFv F2 (scFv)
scFv: EVQLLESGGGLVQPGGSLRLSCAASGFTFSNYSMSWVRQAPGKGLEWVSGISSDGGNKYYADSVKGRFTISRDNSKNTLYLQMNSLRAEDTAVYYCARRAIPFDYWGQGTLVTVSSGGGGSGGGGSGGGGSQSVLTHPPSASGTPGQRVTISCTGSSSNIGSNAVSWYQQLPGTAPKLLIYYNSQRPSGVPDRFSGSKSGTSASLAISGLRSEDEADYYCGAWDDSLNAYVFGGGTKLTVLG
binds: all assays above
